Values joined by “and” are separate entries in the source; they are usually repeats but may differ in a detail not shown here. Equal entries are not always repeated.

In one data set the test system is HLA class I molecules of EOC tissue. Put plainly: HLA class I ligandome (immunopeptidome) analysis by LC-MS/MS, comparative profiling EOC vs benign tissues. More on the design: species or system human. Conditions: HLA class I ligands; number of samples per tissue (OvCa, PBMCs, Liver, Kidney); Table 9.
In turn, “550 (ALLPAVPSL; listed as Homo sapiens) [compound 550]” registered a Sources of presentation of 1× OvCa.

Regarding “551 (GRNSFEVRV; listed as Homo sapiens) [compound 551]”, the Sources of presentation was 1× PBMC, and 1× Liver, and 1× Kidney, and 1× OvCa. On the same count and under the same terms, the same measure for “554 (TYLPTNASLSF; listed as Homo sapiens) [compound 554]”: 2× OvCa; for “555 (GVFRGIQDV; listed as Homo sapiens) [compound 555]”: 2× OvCa; for “556 (LMSVYVVEL; listed as Homo sapiens) [compound 556]”: 2× PBMCs.

For “557 (QRNMTKLQL; listed as Homo sapiens) [compound 557]”, the Sources of presentation was 2× OvCa, and 1× Liver, and 1× PBMCs.

Another data set concerns HLA class II molecules of EOC tissue. Description: HLA class II ligandome (immunopeptidome) analysis by LC-MS/MS, comparative profiling EOC vs benign tissues. The arrangement: species or system human. The following applies: HLA class II ligands of Her2neu; number of samples per tissue (OvCa, PBMCs, Liver, Kidney); Table 9.
“291 (DPSPLQRYSEDPTVPLPS; listed as Homo sapiens) [compound 291]” showed a Sources of presentation of 1× OvCa. On the same count and under the same terms, in the case of “292 (DPSPLQRYSEDPTVPLPSE; listed as Homo sapiens) [compound 292]” it was 2× OvCa. With “293 (ELVSEFSRMARD; listed as Homo sapiens) [compound 293]”, the Sources of presentation is on record as 1× OvCa. The same measure, in the same setting: in the case of “294 (ELVSEFSRMARDPQ; listed as Homo sapiens) [compound 294]” it was 2× PBMCs; in that of “295 (IPVAIKVLRENTSPKANKE; listed as Homo sapiens) [compound 295]”, 2× PBMCs, and 1× Kidney; in that of “296 (RRLLQETELVEPLTPS; listed as Homo sapiens) [compound 296]”, 1× OvCa. Same read-out and setting: in the case of “297 (SPQPEYVNQPDVRPQPP; listed as Homo sapiens) [compound 297]” it was 2× Liver. The same measure, in the same setting: in the case of “298 (VKPDLSYMPIWKFPDE; listed as Homo sapiens) [compound 298]” it was 1× OvCa.

These data come from patent publication US11806366B2, “Peptides and combination of peptides for use in immunotherapy against epithelial ovarian cancer and other cancers” (Immatics Biotechnologies GmbH, priority 2015, dated 2023).
